Test results: article PMC9974998

Sequences of proteins named here, by UniProt entry; tags and fusion partners are left off.
UniProt Q15172: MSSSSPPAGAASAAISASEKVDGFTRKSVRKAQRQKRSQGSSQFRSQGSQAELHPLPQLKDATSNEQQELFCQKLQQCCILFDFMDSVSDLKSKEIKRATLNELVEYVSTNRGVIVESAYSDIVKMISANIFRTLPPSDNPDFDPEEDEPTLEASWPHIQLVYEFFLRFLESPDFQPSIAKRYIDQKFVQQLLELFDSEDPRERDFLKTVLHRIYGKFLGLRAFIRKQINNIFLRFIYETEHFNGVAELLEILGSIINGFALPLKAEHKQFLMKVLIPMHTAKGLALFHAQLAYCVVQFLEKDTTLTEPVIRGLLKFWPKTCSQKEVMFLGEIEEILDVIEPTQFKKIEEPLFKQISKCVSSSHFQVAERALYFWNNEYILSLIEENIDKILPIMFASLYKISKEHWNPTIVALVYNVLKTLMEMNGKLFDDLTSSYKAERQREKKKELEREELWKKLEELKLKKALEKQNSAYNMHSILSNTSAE
UniProt Q76MZ3: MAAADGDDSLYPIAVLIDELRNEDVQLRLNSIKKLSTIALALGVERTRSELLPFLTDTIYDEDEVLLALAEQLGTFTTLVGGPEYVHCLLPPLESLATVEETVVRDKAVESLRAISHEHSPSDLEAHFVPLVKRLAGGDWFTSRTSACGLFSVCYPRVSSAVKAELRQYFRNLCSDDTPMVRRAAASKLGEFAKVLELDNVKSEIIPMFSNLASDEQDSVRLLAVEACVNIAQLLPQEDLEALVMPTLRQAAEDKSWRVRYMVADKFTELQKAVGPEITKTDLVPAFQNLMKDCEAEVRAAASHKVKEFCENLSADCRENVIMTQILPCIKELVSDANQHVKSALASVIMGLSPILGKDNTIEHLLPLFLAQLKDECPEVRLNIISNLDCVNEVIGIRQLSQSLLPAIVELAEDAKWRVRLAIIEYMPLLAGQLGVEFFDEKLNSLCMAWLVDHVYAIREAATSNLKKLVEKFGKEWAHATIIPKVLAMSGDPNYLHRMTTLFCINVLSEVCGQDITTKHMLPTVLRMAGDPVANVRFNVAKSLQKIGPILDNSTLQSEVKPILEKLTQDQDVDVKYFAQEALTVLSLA

Biological target: YFP-B56α WT (human) (UniProt Q15172)
Experiment: affinity purification with mass spectrometry; NIH3T3 stably expressing CIP2A(1-905)V5 or empty vector, transfected with YFP-B56α; GFP-Trap, washes up to 300 mM NaCl, on-bead trypsin, LC-MS/MS; three replicates each

## endogenous A-subunit (PPP2R1A) of NIH3T3 cells (from UniProt Q76MZ3 1-589)
  binding: binds

These are yes or no findings as the source states them, for the method shown. In cells and extracts the contact can be indirect. Here binding means that the protein was enriched with, or labelled near, the bait; the list need not be complete.
